For one molecule, Etch results are on record in US20110056516A1, “PROCESS FOR SURFACE TREATMENT OF METALS” (priority 2007, published 2011).

Structures are written as SMILES. Where “and” joins values, the source holds several entries; their conditions need not be identical. Equal entries are not always repeated. Where two headings read alike, the source gives them in different places.

For data set [1] the following is noted: HRS, 150° F., 5 minutes pickle; H2SO4 10%, Modified H2SO4 16%.
The conditions of data set [2]: 304 SS, 150° F., 5 minutes pickle; H2SO4 10%, Modified H2SO4 16%.

As for `O=S(=O)(O)O` [H2SO4, sulfuric acid], the Etch in data set [1] is 2.369 gm/ft^2 and 2.424 gm/ft^2; in data set [2], 0.739 gm/ft^2 and 0.814 gm/ft^2.
